Reference: PubChem BioAssay AID493027 (The Scripps Research Institute Molecular Screening Center, 2011)
The whole screen tested about 2,000 compounds, of which about 45 (2%) were called active.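 The calls were made as follows: active = inhibition above the screen-wide mean inhibition plus 3 SD (cut at about 44% in these data); inactive = the rest.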 This is one part of the list.

By UniProt entry, the sequences of proteins in these tests, tags left out. Where a name states a change or a piece, a line headed by the entry shows the natural chain unless it says otherwise.
UniProt O60240: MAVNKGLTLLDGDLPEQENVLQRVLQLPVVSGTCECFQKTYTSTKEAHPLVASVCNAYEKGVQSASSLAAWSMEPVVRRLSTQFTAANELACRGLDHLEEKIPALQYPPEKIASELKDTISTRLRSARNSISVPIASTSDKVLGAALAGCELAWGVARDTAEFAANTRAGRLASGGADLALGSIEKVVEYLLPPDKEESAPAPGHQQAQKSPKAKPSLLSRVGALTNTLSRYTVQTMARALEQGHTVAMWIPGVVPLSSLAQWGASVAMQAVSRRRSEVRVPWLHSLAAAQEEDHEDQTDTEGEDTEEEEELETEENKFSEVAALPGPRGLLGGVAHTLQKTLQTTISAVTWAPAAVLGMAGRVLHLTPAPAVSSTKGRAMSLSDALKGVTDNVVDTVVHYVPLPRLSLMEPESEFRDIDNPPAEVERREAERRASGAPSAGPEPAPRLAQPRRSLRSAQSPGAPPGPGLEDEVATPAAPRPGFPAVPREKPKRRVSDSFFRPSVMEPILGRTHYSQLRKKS
UniProt Q8WTS1: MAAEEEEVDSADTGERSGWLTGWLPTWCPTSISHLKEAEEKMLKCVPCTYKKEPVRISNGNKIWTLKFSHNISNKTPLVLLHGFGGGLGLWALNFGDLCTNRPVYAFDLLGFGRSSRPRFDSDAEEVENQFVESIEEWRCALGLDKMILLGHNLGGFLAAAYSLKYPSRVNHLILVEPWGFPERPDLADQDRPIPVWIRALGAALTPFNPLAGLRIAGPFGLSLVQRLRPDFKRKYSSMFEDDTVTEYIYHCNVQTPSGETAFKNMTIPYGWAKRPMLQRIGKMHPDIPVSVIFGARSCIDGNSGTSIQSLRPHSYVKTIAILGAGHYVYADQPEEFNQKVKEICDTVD

molecular target: Perilipin-1 (Homo sapiens) + 1-acylglycerol-3-phosphate O-acyltransferase ABHD5 (Homo sapiens) (UniProt O60240+Q8WTS1); assay: blockers of ABHD5 binding to perilipin-1 – cell lysate, split luciferase complementation, luminescence, NIH validation set, pilot screen (AID 493027);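 also: 0% = DMSO wells with the 100% control not disclosed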; conditions: split G. princeps luciferase complementation, 4 h; at 7.9 µM, active compounds read high

inhibition, active:
O=C(/C=C/c1ccccc1)c1ccccc1 61.4%

inhibition, inactive:
COc1ccc(CCN(C)CC(=O)Nc2cc(C)nc3ccccc23)cc1OC 3.27%
O=C1OCCN1/N=C/c1ccc([N+](=O)[O-])o1 -2.79%
COc1ccc(NC2=C(Cl)C(=O)N(c3ccccc3)C2=O)c(OC)c1 0.22%
CCC(=O)O[C@]1(C(=O)CCl)[C@@H](C)C[C@H]2[C@@H]3CCC4=CC(=O)C=C[C@]4(C)[C@@]3(F)[C@@H](O)C[C@@]21C -6.31%
Cc1ccc(C(=O)N2CC3(C(C)C)CN(C(=O)c4ccc(C)cc4)CC(C(C)C)(C2)C3=O)cc1 -7.75%
CCOc1cccc(N2C(=O)CC(N(CCc3ccc(OC)c(OC)c3)C(=O)CC)C2=O)c1 (stereo not drawn) -6.24%
CN(C)CC/C=C1\c2ccccc2Sc2ccc(Cl)cc21 3.88%
Cc1c(O)c(=O)ccn1C -3.99%
N#Cc1c2c(c(-c3ccccc3)[nH]c1=O)CCCC2 -0.9%
Cc1nc(-c2coc3c(CN(C)C)c(O)ccc3c2=O)cs1 -0.69%
CC(C)c1ccc(/C=C/C(=O)O)cc1 -6.65%
COc1cccc2c(=O)c(C/C=C(/C)Cl)c(C)[nH]c12 2.34%
COc1ccc(C2CNC(=O)C2)cc1OC1CCCC1 (stereo not drawn) -10.7%
COc1ccc(-c2noc(-c3ccccc3-c3ccccc3)n2)cc1 -4.82%
COC(=O)c1[nH]c2ccc(C)cc2c1NC(=O)CN1CCc2cc(OC)c(OC)cc2C1 10.7%
COc1ccc(-c2[nH]ncc2C=O)cc1OC 2.4%
O=C(Nc1ncc2c(n1)CC(c1ccco1)CC2=O)c1ccco1 (stereo not drawn) -2.98%
Cc1nc(NC(CC(C)C)C(=O)O)c2nc(C)oc2n1 (stereo not drawn) -9.74%
Cn1cc(CN2CCN(CCO)CC2)c(-c2ccc(Oc3ccccc3)cc2)n1 2.98%
CCN1CCN(C(=S)c2ccc(OC)cc2)CC1 -5.37%
O=C1Cc2ccccc2C(c2ccccc2)N1 (stereo not drawn) -1.55%
O=C(COc1ccc(F)cc1)OCCN1CCOCC1 -9.55%
CCN(CC)CC#CCOC(=O)C(O)(c1ccccc1)C1CCCCC1 (stereo not drawn) -7.62%
Cc1ncc([N+](=O)[O-])n1CCO -5.5%
O=C(O)c1ccc(C(=O)C(=O)c2ccccc2)cc1 -8.11%
COc1ccc(CCN2CCC(Nc3nc4ccccc4n3Cc3ccc(F)cc3)CC2)cc1 -8.19%
O=C1CC[C@@H](CN(Cc2ccccc2)Cc2cn[nH]c2-c2cc3ccccc3o2)N1 16.7%
CCc1cc2c(=O)c(-c3nc(C)cs3)coc2cc1OC(C)C(=O)NCCO (stereo not drawn) -3.43%
C=CCn1c(SCC(=O)NC2CCCCC2)nc2ccccc2c1=O -4.35%
CN/C(=C/[N+](=O)[O-])NCCSCc1ccc(CN(C)C)o1 -16.8%
O=C(CCCN1CC=C(n2c(=O)[nH]c3ccccc32)CC1)c1ccc(F)cc1 -3.84%
COc1cc2oc(-c3ccc(O)cc3)cc(=O)c2c(OC)c1O 6.44%
CCN(CC)CCNC(=O)c1cc(S(C)(=O)=O)ccc1OC 0.44%
COc1ccc2oc(=O)c(C(=O)Nc3ccccc3-c3ccccc3)cc2c1 -7.96%
O=C(O)c1ccccc1OCCOc1ccccc1 -4.07%
CCn1cc(C(=O)O)c(=O)c2ccc(C)nc21 -9.27%
CC(=O)N(CCC(Cc1ccccc1)c1ccc2c(c1)OCO2)Cc1ccc(Cl)cc1 (stereo not drawn) 5.7%
COc1ccc2cc(CCC(C)=O)ccc2c1 -4.36%
O=c1c2ccccc2nnn1Cc1cccc2ccccc12 7.22%
C#CCN(C)Cc1ccccc1 -12.8%
O=C(O)C1[C@H]2C(=O)N(C3CCCC3)C[C@]23C=C[C@H]1O3 (stereo partly drawn) -11%
CC(=O)N1CC23C=CC(CC2CC12CCCCCC2)O3 (stereo not drawn) -6.35%
CC(=O)Oc1ccc(C2OC(=O)c3ccccc3N2C(C)=O)cc1 (stereo not drawn) 10.1%
COc1ccc(OC)c(-n2c(Cn3c(-c4ccccn4)nc4ccccc43)n[nH]c2=S)c1 -10.2%
CC(C)(C)OC(=O)NCCC(=O)Oc1ccc2ccc(=O)oc2c1 -5.12%
CCc1cc2c(=O)c(-c3nc4ccccc4n3C)coc2c(CN2CCN(C)CC2)c1O -2.41%
COc1cc2nc(N3CCN(C(=O)c4ccco4)CC3)nc(N)c2cc1OC -3.7%
COc1ccc2c(c1O)Cc1ccccc1C2=O 12%
CC1CCCc2sc3ncn(N)c(=N)c3c21 (stereo not drawn) -6.87%
O=c1oc2c(CN3CCCCC3)c(O)ccc2c2c1CCCCC2 2.7%
CC(=O)[C@@H]1[C@@H](C(=O)c2ccc(C)cc2)[C@]2(C(=O)Nc3ccccc32)[C@H]2C=Cc3cc(F)ccc3N12 7.6%
COC(=O)c1ccc(C(=O)OC)c(NC(=O)C(C)C)c1 -14.8%
COCc1cc(=O)[nH]c(Nc2nc3ccccc3o2)n1 -0.24%
O=C(c1cccnc1)N1N=C(C2CC2)CC1(O)C(F)(F)F (stereo not drawn) -0.45%
COC(=O)C1=C(C)N(C)C(=S)NC1c1ccc(Cl)cc1 (stereo not drawn) -2.33%
OCCN1CCN(CCCN2c3ccccc3Sc3ccc(Cl)cc32)CC1 6.03%
CCn1c(O)c(/C=C2\C=Nc3ccccc32)sc1=O 9.02%
Nc1ccc(S(=O)(=O)c2ccc(N)cc2)cc1 -14.4%
O=C(O)c1ccccc1C(=O)OCCCCOC(=O)c1ccccc1C(=O)O -3.61%
CC(=O)OCC#CCSc1nc2ccccc2n1C -4.07%
CCCC(=O)O[C@]1(C(=O)COC(C)=O)CC[C@H]2[C@@H]3C[C@H](F)C4=CC(=O)C=C[C@]4(C)[C@@]3(F)[C@@H](O)C[C@@]21C 11.5%
Cn1nnnc1SCC1=C(C(=O)O)N2C(=O)[C@@H](NC(=O)[C@H](O)c3ccccc3)[C@H]2SC1 2.92%
O=C(NNC(=O)c1cccs1)c1ccco1 -10.1%
CC(=O)Nc1ccc2[nH]c(C)c(CC=C(Cl)Cl)c(=O)c2c1 -6.23%
O=c1cc(-c2ccccc2)oc2cc(OCc3ccccc3)cc(O)c12 -12.7%
C/C(=N\N=C1\NC(=O)C(CC(=O)Nc2ccc(Cl)cc2)S1)c1ccco1 (stereo not drawn) 11.1%
O=C(COc1ccc2c(-c3ccccc3)cc(=O)oc2c1)NCc1cccs1 5.17%
CCN1CCN(C(=O)N[C@@H](C(=O)N[C@@H]2C(=O)N3[C@@H]2SC(C)(C)[C@@H]3C(=O)O)c2ccccc2)C(=O)C1=O -2.98%
CCc1cc2c(C)cc(=O)oc2cc1OC(=O)C1CCCN1C(=O)OC(C)(C)C (stereo not drawn) 1.95%
COc1cc(CNc2nnnn2C)ccc1OCc1ccc(F)cc1Cl 4.34%
CCc1cccc(OC2OC(CO)C(O)C(O)C2NC(C)=O)c1 (stereo not drawn) -10.8%
CCCc1c(OCCCCc2nn[nH]n2)ccc(C(C)=O)c1O 6.17%
C=CCc1cccc2cc(C(=O)Nc3ccc(CC(=O)O)cc3)c(=O)oc12 2.62%
Cc1ccc(CN2CCN(Cc3cn[nH]c3C3CCCCC3)CC2CCO)cc1 (stereo not drawn) -2.76%
CCCC(=O)Nc1ncnc2c1ncn2[C@@H]1O[C@@H]2COP(=O)(O)O[C@H]2[C@H]1OC(=O)CCC -11.2%
O=C(N1CCCCC1)C1(c2ccccc2)CCOCC1 -5.12%
CC(C)Cc1cc(C(=O)N2CCC(N3CCC(C(=O)N4CCCC4)CC3)CC2)n[nH]1 -2.27%
Nc1nc(SCc2ccc([N+](=O)[O-])cc2)c2ncn(C3OC(CO)C(O)C3O)c2n1 (stereo not drawn) -5.1%
CCOc1ccc2nc(NC(=O)NC3CCCCC3)sc2c1 -5.14%
COc1cc(COc2ccc3c(C)c(Cc4ccccc4)c(=O)oc3c2)cc(OC)c1OC 11.2%
COc1ccc(CC(=O)NCC2(c3ccc(OC)c(OC)c3)CCOCC2)cc1 -9.55%
O=C(O)[C@H](Cc1ccccc1)NC(=O)N1CCC(Cc2ccccc2)CC1 -7.12%
C[C@]12CCC(=O)C=C1CC[C@@H]1[C@@H]2[C@@H](O)C[C@@]2(C)[C@H]1CC[C@]2(O)C(=O)COC(=O)CCC(=O)O 1.23%
CC(C)(C)NC[C@H](O)COc1nsnc1N1CCOCC1 0.59%
COc1ccc2c(=O)c(-c3cnn(-c4ccccc4)c3)c(C)oc2c1 15%
Fc1cccc(Cc2noc(CN3CCN(c4cnccn4)CC3)n2)c1 -16.5%
CCOc1ccc(C(=O)Nc2ccc(N3CCN(C(C)=O)CC3)cc2)cc1[N+](=O)[O-] 4.78%
Cn1c(Oc2ccc3c(c2)OCO3)nc2c1c(=O)n(Cc1ccccc1)c(=O)n2C -2.14%
O=C(Cc1ccccc1)NCC(=O)OCC(=O)c1ccccc1Cl -13.7%
Cc1cnc(C(=O)N2CCCC(C(=O)c3ccc(Cl)cc3C)C2)cn1 (stereo not drawn) 1.67%
COc1ccc(-c2nc(C)c(C(C)=O)n2O)cc1OC 7.48%
CC(=O)NC(NC(=S)N1CCCCCC1)C(Cl)(Cl)Cl (stereo not drawn) -11.6%

Four entries out of the list, arranged by count of non-hydrogen atoms, descending:
inhibition, inactive:
CC(C)Cc1cc(C(=O)N2CCC(N3CCC(C(=O)N4CCCC4)CC3)CC2)n[nH]1 -2.27%
C/C(=N\N=C1\NC(=O)C(CC(=O)Nc2ccc(Cl)cc2)S1)c1ccco1 (stereo not drawn) 11.1%
O=c1oc2c(CN3CCCCC3)c(O)ccc2c2c1CCCCC2 2.7%
CCN1CCN(C(=S)c2ccc(OC)cc2)CC1 -5.37%
